According to article doi:10.1101/2025.07.07.663452:
These are yes or no findings as the source states them, for the method shown. Binding seen in cells or lysates may run through a third protein. Some entries that bind do so weakly or less than the wild type. Blank lines part the entries; values can stand above or below the molecule they belong to.

Amino acid sequences for entries named in this document (tags omitted). A change or cut given only in a name is not applied to a line headed by its entry.
UniProt P45974: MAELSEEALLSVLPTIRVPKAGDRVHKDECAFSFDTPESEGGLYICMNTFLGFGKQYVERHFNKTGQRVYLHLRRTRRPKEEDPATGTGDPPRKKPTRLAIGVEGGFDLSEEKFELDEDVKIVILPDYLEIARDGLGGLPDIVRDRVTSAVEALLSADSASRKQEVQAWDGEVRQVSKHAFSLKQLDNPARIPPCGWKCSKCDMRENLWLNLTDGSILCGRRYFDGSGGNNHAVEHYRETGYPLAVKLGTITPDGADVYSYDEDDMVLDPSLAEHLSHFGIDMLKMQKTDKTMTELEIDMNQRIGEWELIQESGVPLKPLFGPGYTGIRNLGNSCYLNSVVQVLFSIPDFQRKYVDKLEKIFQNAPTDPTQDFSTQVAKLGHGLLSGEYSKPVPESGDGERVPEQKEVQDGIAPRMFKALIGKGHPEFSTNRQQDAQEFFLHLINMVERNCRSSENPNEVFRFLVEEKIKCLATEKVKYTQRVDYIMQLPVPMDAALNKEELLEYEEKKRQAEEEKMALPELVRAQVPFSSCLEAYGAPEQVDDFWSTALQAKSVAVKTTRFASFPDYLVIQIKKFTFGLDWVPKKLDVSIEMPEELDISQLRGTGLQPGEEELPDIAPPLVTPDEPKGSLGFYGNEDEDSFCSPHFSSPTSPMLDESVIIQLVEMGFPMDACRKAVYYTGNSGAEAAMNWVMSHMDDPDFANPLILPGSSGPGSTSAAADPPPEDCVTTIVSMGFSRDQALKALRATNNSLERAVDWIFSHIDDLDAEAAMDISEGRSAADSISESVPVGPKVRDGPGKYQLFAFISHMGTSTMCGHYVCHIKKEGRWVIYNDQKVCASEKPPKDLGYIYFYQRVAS
UniProt Q9Z120: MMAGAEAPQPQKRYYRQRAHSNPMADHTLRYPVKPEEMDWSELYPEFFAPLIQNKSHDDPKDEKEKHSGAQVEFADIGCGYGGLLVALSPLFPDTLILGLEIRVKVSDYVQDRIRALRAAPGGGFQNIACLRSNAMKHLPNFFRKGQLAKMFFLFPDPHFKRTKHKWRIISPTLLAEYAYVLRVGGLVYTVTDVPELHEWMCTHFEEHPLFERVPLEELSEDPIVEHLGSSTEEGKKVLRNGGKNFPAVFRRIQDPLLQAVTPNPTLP
UniProt Q9UBP6: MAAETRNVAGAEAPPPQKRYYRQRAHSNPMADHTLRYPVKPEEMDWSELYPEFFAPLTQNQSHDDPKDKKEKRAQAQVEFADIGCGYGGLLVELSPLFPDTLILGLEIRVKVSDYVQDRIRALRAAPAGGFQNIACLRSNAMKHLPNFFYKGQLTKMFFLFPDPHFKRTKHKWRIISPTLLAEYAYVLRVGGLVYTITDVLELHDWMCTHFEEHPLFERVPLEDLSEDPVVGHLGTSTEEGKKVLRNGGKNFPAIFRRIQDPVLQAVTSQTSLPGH

What was measured:
Experiment in all cases: co-IP
[1] = target: USP5, unmutated, expressed in HEK293T cells (parent of the binding-site mutants of Fig. 8I-J) (UniProt P45974)
[2] = target: His-USP5, expressed in AC16 cells (UniProt P45974)
[3] = target: ubiquitin-specific peptidase 5 (USP5), human, endogenous in AC16 cardiomyocytes (human (endogenous in AC16)) (UniProt P45974)
[4] = target: methyltransferase-like 1 (METTL1), mouse, endogenous in NMCM cells (mouse (endogenous in NMCM)) (UniProt Q9Z120)

binding [1]: binds
Molecule: METTL1 in HEK293T cells (partner of the USP5 mutants, Fig. 8J) (from UniProt Q9UBP6 1-276) (enzyme)

binding [2]: binds
binding [3]: binds
Molecule: methyltransferase-like 1 (METTL1), human, endogenous in AC16 cardiomyocytes (from UniProt Q9UBP6 1-276) (enzyme)

binding [4]: binds
B1: O-GlcNAc transferase (OGT), mouse, endogenous in NMCM cells and MEFs (enzyme, UniProt Q8CGY8 1-1046)
chain: MASSVGNVADSTEPTKRMLSFQGLAELAHREYQAGDFEAAERHCMQLWRQEPDNTGVLLLLSSIHFQCRRLDRSAHFSTLAIKQNPLLAEAYSNLGNVYKERGQLQEAIEHYRHALRLKPDFIDGYINLAAALVAAGDMEGAVQAYVSALQYNPDLYCVRSDLGNLLKALGRLEEAKACYLKAIETQPNFAVAWSNLGCVFNAQGEIWLAIHHFEKAVTLDPNFLDAYINLGNVLKEARIFDRAVAAYLRALSLSPNHAVVHGNLACVYYEQGLIDLAIDTYRRAIELQPHFPDAYCNLANALKEKGSVAEAEDCYNTALRLCPTHADSLNNLANIKREQGNIEEAVRLYRKALEVFPEFAAAHSNLASVLQQQGKLQEALMHYKEAIRISPTFADAYSNMGNTLKEMQDVQGALQCYTRAIQINPAFADAHSNLASIHKDSGNIPEAIASYRTALKLKPDFPDAYCNLAHCLQIVCDWTDYDERMKKLVSIVAEQLEKNRLPSVHPHHSMLYPLSHGFRKAIAERHGNLCLDKINVLHKPPYEHPKDLKLSDGRLRVGYVSSDFGNHPTSHLMQSIPGMHNPDKFEVFCYALSPDDGTNFRVKVMAEANHFIDLSQIPCNGKAADRIHQDGIHILVNMNGYTKGARNELFALRPAPIQAMWLGYPGTSGALFMDYIITDQETSPAEVAEQYSEKLAYMPHTFFIGDHANMFPHLKKKAVIDFKSNGHIYDNRIVLNGIDLKAFLDSLPDVKIVKMKCPDGGDNPDSSNTALNMPVIPMNTIAEAVIEMINRGQIQITINGFSISNGLATTQINNKAATGEEVPRTIIVTTRSQYGLPEDAIVYCNFNQLYKIDPSTLQMWANILKRVPNSVLWLLRFPAVGEPNIQQYAQNMGLPQNRIIFSPVAPKEEHVRRGQLADVCLDTPLCNGHTTGMDVLWAGTPMVTMPGETLASRVAASQLTCLGCLELIAKSRQEYEDIAVKLGTDLEYLKKIRGKVWKQRISSPLFNTKQYTMELERLYLQMWEHYAAGNKPDHMIKPVEVTESA
